The other results are listed elsewhere or left out. Repeats in this data set agree poorly, so a single value says little.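 HEK293T cells were given each compound shortly before transfection with a reporter in which red mCherry is followed by the SARS-CoV-2 frameshift element and then GFP in the −1 frame, so GFP appears only after frameshifting.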
tested on: HEK293T; experiment: percent viability (nuclei count) relative to control; higher = more viable cells; details: 10 µM; 24 h

SMILES | percent viability [%]
Cc1ccccc1N1CCN(CCc2nnc3n2CCCC3)CC1 | 97
NC(N)=O | 152
O=C1OC(CN2CCOCC2)CN1/N=C/c1ccc([N+](=O)[O-])o1 (stereo not given) [furaltadone] | 117
O=C1C(=O)c2ccccc2C(O)=C1C1CCC(c2ccc(Cl)cc2)CC1 (stereo not given) | 167
O=C(O)CN1CCN(CC(=O)O)CCN(CC(=O)O)CCN(CC(=O)O)CC1 [tetraxetan] | 101

Reference: the supplement of paper PMC8256030
